# Laboratory results taken from the supplement of paper PMC8728848.
# The list shows a part of the results.
# Experiments:
# Experiment in all cases: glycan array binding signal (z-score within array); higher = stronger binding
# Conditions in all cases: glycan notation: IUPAC condensed, linker removed
# [1] = molecular target: GalNAc(b1-4)GlcNAc(b1-2)Man
# Procedure, shortened: (§1)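 The binding signal is a Z-score computed within each array and averaged over linkers. Arrays of the same protein sequence at different concentrations or buffers were also averaged together. Data originate from 3228 arrays in the Consortium for Functional Glycomics database, kept only where the protein sequence was available.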
# [2] = molecular target: GalNAc(b1-4)GlcNAc(b1-2)Man(a1-3)[GalNAc(b1-4)GlcNAc(b1-2)Man(a1-6)]Man(b1-4)GlcNAc(b1-4)GlcNAc
# Procedure, shortened: as §1
# [3] = molecular target: GalNAc(b1-4)GlcNAc(b1-3)GalNAc(b1-4)GlcNAc
# Procedure, shortened: as §1
# GalNAc(b1-4)GlcNAc6S = molecular target: GalNAc(b1-4)GlcNAc6S
# Procedure, shortened: as §1
# GalNAc(b1-6)GalNAc = molecular target: GalNAc(b1-6)GalNAc
# Procedure, shortened: as §1
# GalNAc3S(b1-4)GlcNAc = molecular target: GalNAc3S(b1-4)GlcNAc
# Procedure, shortened: as §1
# GalNAc3S(b1-4)GlcNAc3S = molecular target: GalNAc3S(b1-4)GlcNAc3S
# Procedure, shortened: as §1
# [4] = molecular target: GalNAc3S(b1-4)[Fuc(a1-3)]GlcNAc
# Procedure, shortened: as §1
# GalNAc4S6S(b1-4)GlcNAc = molecular target: GalNAc4S6S(b1-4)GlcNAc
# Procedure, shortened: as §1
# GalNAc6S(b1-4)GlcNAc = molecular target: GalNAc6S(b1-4)GlcNAc
# Procedure, shortened: as §1
# Glc(a1-4)Glc = molecular target: Glc(a1-4)Glc
# Procedure, shortened: as §1
# [5] = molecular target: Glc(a1-4)Glc(a1-4)Glc(a1-4)Glc
# Procedure, shortened: as §1
# Glc(a1-6)Glc(a1-6)Glc = molecular target: Glc(a1-6)Glc(a1-6)Glc
# Procedure, shortened: as §1
# [6] = molecular target: Glc(a1-6)Glc(a1-6)Glc(a1-6)Glc
# Procedure, shortened: as §1
# Glc(b1-4)Glc = molecular target: Glc(b1-4)Glc
# Procedure, shortened: as §1
# Glc(b1-6)Glc = molecular target: Glc(b1-6)Glc
# Procedure, shortened: as §1
# GlcA(b1-3)Gal = molecular target: GlcA(b1-3)Gal
# Procedure, shortened: as §1
# GlcA(b1-3)GlcNAc = molecular target: GlcA(b1-3)GlcNAc
# Procedure, shortened: as §1
# GlcA(b1-6)Gal = molecular target: GlcA(b1-6)Gal
# Procedure, shortened: as §1
# [7] = molecular target: GlcA3S(b1-3)Gal(b1-4)GlcNAc(b1-2)Man
# Procedure, shortened: as §1
# [8] = molecular target: GlcA3S(b1-3)Gal(b1-4)GlcNAc(b1-3)Gal(b1-4)Glc
# Procedure, shortened: as §1
# [9] = molecular target: GlcNAc(a1-3)Gal(b1-4)GlcNAc
# Procedure, shortened: as §1
# [10] = molecular target: GlcNAc(a1-4)Gal(b1-3)GlcNAc
# Procedure, shortened: as §1
# [11] = molecular target: GlcNAc(a1-4)Gal(b1-4)GalNAc
# Procedure, shortened: as §1
# [12] = molecular target: GlcNAc(a1-4)Gal(b1-4)GlcNAc
# Procedure, shortened: as §1
# [13] = molecular target: GlcNAc(a1-4)Gal(b1-4)GlcNAc(b1-3)Gal(b1-4)Glc
# Procedure, shortened: as §1
# [14] = molecular target: GlcNAc(a1-4)Gal(b1-4)GlcNAc(b1-3)Gal(b1-4)GlcNAc
# Procedure, shortened: as §1
# [15] = molecular target: GlcNAc(a1-4)Gal(b1-4)GlcNAc(b1-3)Gal(b1-4)GlcNAc(b1-3)Gal(b1-4)GlcNAc
# Procedure, shortened: as §1
# [16] = molecular target: GlcNAc(a1-4)Gal(b1-4)GlcNAc(b1-3)Gal(b1-4)[Fuc(a1-3)]GlcNAc(b1-3)Gal(b1-4)[Fuc(a1-3)]GlcNAc
# Procedure, shortened: as §1
# [17] = molecular target: GlcNAc(a1-6)Gal(b1-4)GlcNAc
# Procedure, shortened: as §1
# [18] = molecular target: GlcNAc(b1-2)Gal(b1-3)GalNAc
# Procedure, shortened: as §1
# [19] = molecular target: GlcNAc(b1-2)Man(a1-3)[GlcNAc(b1-2)Man(a1-6)]Man(b1-4)GlcNAc(b1-4)GlcNAc
# Procedure, shortened: as §1
# [20] = molecular target: GlcNAc(b1-2)Man(a1-3)[GlcNAc(b1-2)Man(a1-6)]Man(b1-4)GlcNAc(b1-4)[Fuc(a1-6)]GlcNAc
# Procedure, shortened: as §1
# [21] = molecular target: GlcNAc(b1-2)Man(a1-3)[GlcNAc(b1-4)][GlcNAc(b1-2)Man(a1-6)]Man(b1-4)GlcNAc(b1-4)GlcNAc
# Procedure, shortened: as §1
# [22] = molecular target: GlcNAc(b1-2)Man(a1-3)[GlcNAc(b1-4)][GlcNAc(b1-2)Man(a1-6)]Man(b1-4)GlcNAc(b1-4)[Fuc(a1-6)]GlcNAc
# Procedure, shortened: as §1
# [23] = molecular target: GlcNAc(b1-2)[GlcNAc(b1-4)]Man(a1-3)[GlcNAc(b1-2)Man(a1-6)]Man(b1-4)GlcNAc(b1-4)GlcNAc
# Procedure, shortened: as §1
# [24] = molecular target: GlcNAc(b1-2)[GlcNAc(b1-4)]Man(a1-3)[GlcNAc(b1-4)][GlcNAc(b1-2)Man(a1-6)]Man(b1-4)GlcNAc(b1-4)GlcNAc
# Procedure, shortened: as §1
# [25] = molecular target: GlcNAc(b1-2)[GlcNAc(b1-4)]Man(a1-3)[GlcNAc(b1-4)][GlcNAc(b1-2)[GlcNAc(b1-6)]Man(a1-6)]Man(b1-4)GlcNAc(b1-4)GlcNAc
# Procedure, shortened: as §1
# [26] = molecular target: GlcNAc(b1-2)[GlcNAc(b1-4)]Man(a1-3)[GlcNAc(b1-4)][GlcNAc(b1-2)[GlcNAc(b1-6)]Man(a1-6)]Man(b1-4)GlcNAc(b1-4)[Fuc(a1-6)]GlcNAc
# Procedure, shortened: as §1
# [27] = molecular target: GlcNAc(b1-2)[GlcNAc(b1-6)]Man(a1-6)[GlcNAc(b1-2)Man(a1-3)]Man(b1-4)GlcNAc(b1-4)GlcNAc
# Procedure, shortened: as §1
# [28] = molecular target: GlcNAc(b1-2)[GlcNAc(b1-6)]Man(a1-6)[GlcNAc(b1-2)Man(a1-3)]Man(b1-4)GlcNAc(b1-4)[Fuc(a1-6)]GlcNAc
# Procedure, shortened: as §1
# [29] = molecular target: GlcNAc(b1-2)[GlcNAc(b1-6)]Man(a1-6)[GlcNAc(b1-4)][GlcNAc(b1-2)Man(a1-3)]Man(b1-4)GlcNAc(b1-4)GlcNAc
# Procedure, shortened: as §1
# GlcNAc(b1-3)Fuc = molecular target: GlcNAc(b1-3)Fuc
# Procedure, shortened: as §1
# GlcNAc(b1-3)Gal = molecular target: GlcNAc(b1-3)Gal
# Procedure, shortened: as §1
# [30] = molecular target: GlcNAc(b1-3)Gal(b1-3)GalNAc
# Procedure, shortened: as §1
binder,measurement,setting,value
Pwp7 (Candida glabrata) (protein) MGSSHHHHHHSSGLVPRGSHMASKNPVDFPNLCQYPNLDGAVAGFDTEIYNADPSILINFSLWPILQFPKEWHKTIGRAITTQTNFKLPASDTTLFGVSIPTQNILIEFRGYFIPPKSGTYTFALYLTDDGSAMFLGNDAAFPCGNITSWSNPTNDQVSVSDYDPKKKTLTVYMVAGVAYPLRIAYYNREKGGSLTASFVDPDGLTHSDWNGYIWTLPSCDNCKYS,glycan array binding signal (z-score),[1],-0.89
same,glycan array binding signal (z-score),[2],2.13
same,glycan array binding signal (z-score),[3],-0.44
same,glycan array binding signal (z-score),GalNAc(b1-4)GlcNAc6S,-0.943
same,glycan array binding signal (z-score),GalNAc(b1-6)GalNAc,-0.868
same,glycan array binding signal (z-score),GalNAc3S(b1-4)GlcNAc,-0.714
same,glycan array binding signal (z-score),GalNAc3S(b1-4)GlcNAc3S,0.586
same,glycan array binding signal (z-score),[4],-0.908
same,glycan array binding signal (z-score),GalNAc4S6S(b1-4)GlcNAc,1.42
same,glycan array binding signal (z-score),GalNAc6S(b1-4)GlcNAc,-0.54
same,glycan array binding signal (z-score),Glc(a1-4)Glc,-0.77
same,glycan array binding signal (z-score),[5],0.248
same,glycan array binding signal (z-score),Glc(a1-6)Glc(a1-6)Glc,0.293
same,glycan array binding signal (z-score),[6],1.4
same,glycan array binding signal (z-score),Glc(b1-4)Glc,-0.475
same,glycan array binding signal (z-score),Glc(b1-6)Glc,0.09
same,glycan array binding signal (z-score),GlcA(b1-3)Gal,-0.1
same,glycan array binding signal (z-score),GlcA(b1-3)GlcNAc,-1.12
same,glycan array binding signal (z-score),GlcA(b1-6)Gal,-0.416
same,glycan array binding signal (z-score),[7],0.715
same,glycan array binding signal (z-score),[8],0.239
same,glycan array binding signal (z-score),[9],-1.06
same,glycan array binding signal (z-score),[10],-0.88
same,glycan array binding signal (z-score),[11],-0.829
same,glycan array binding signal (z-score),[12],-0.268
same,glycan array binding signal (z-score),[13],-0.021
same,glycan array binding signal (z-score),[14],-0.128
same,glycan array binding signal (z-score),[15],-0.206
same,glycan array binding signal (z-score),[16],0.257
same,glycan array binding signal (z-score),[17],-0.965
same,glycan array binding signal (z-score),[18],-0.716
same,glycan array binding signal (z-score),[19],0.107
same,glycan array binding signal (z-score),[20],0.212
same,glycan array binding signal (z-score),[21],1.21
same,glycan array binding signal (z-score),[22],-0.002
same,glycan array binding signal (z-score),[23],-0.131
same,glycan array binding signal (z-score),[24],-0.478
same,glycan array binding signal (z-score),[25],0.072
same,glycan array binding signal (z-score),[26],-0.029
same,glycan array binding signal (z-score),[27],1.35
same,glycan array binding signal (z-score),[28],0.402
same,glycan array binding signal (z-score),[29],0.494
same,glycan array binding signal (z-score),GlcNAc(b1-3)Fuc,-1.03
same,glycan array binding signal (z-score),GlcNAc(b1-3)Gal,-0.803
same,glycan array binding signal (z-score),[30],1.02

# Two entries drawn at random from those above:
binder,measurement,setting,value
Pwp7 (Candida glabrata) (protein) MGSSHHHHHHSSGLVPRGSHMASKNPVDFPNLCQYPNLDGAVAGFDTEIYNADPSILINFSLWPILQFPKEWHKTIGRAITTQTNFKLPASDTTLFGVSIPTQNILIEFRGYFIPPKSGTYTFALYLTDDGSAMFLGNDAAFPCGNITSWSNPTNDQVSVSDYDPKKKTLTVYMVAGVAYPLRIAYYNREKGGSLTASFVDPDGLTHSDWNGYIWTLPSCDNCKYS,glycan array binding signal (z-score),[19],0.107
same,glycan array binding signal (z-score),GalNAc3S(b1-4)GlcNAc3S,0.586
